Taken from: PubChem BioAssay AID1224830 (NIAID, 2016)
Aim: 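Genes whose knock-down alters the TNF-alpha reporter response to LPS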 (primary screen). System: human THP-1 monocytic leukaemia cells, TNF dual-luciferase reporter clone, PMA-differentiated to macrophage-like cells. Reagent: siRNA pool against human genes, 50 nM. Time to read-out: LPS for 4 h, given about 3 days after siRNA transfection. Conditions: bacterial LPS (TLR4 ligand), 10 ng/ml. Detection: 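TNF firefly reporter luminescence divided by renilla, normalised to the plate median, then turned into a robust z-score for each replicate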. Direction: TNF reporter robust z-score: higher = stronger TNF reporter response to LPS. Hit rule: 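Each well counts as active if its z-score is over 2.8 or under -1.5; controls are left without a call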.
This is an unselected part of about 18,000 reagents. About 2,900 of all reagents (16%) count as active. 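Calls are made per well; low scores hint the gene aids the LPS response, high scores that it dampens it.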 Unmarked entries are inactive. Repeated entries: four replicate wells of each siRNA pool.

With knock-down of ABHD17C the results were TNF reporter robust z-score -0.7.
ABHD17C showed TNF reporter robust z-score 0.2.
For ABHD17C, the values are TNF reporter robust z-score -0.04.
With knock-down of ABHD17C, the screen gave TNF reporter robust z-score -0.77.
RBPJL gave TNF reporter robust z-score 2.01.
After knock-down of RBPJL, the screen gave TNF reporter robust z-score 1.67.
RBPJL scored TNF reporter robust z-score 0.7.
Silencing of RBPJL resulted in: TNF reporter robust z-score 1.18.
With knock-down of ISCU, the record shows TNF reporter robust z-score 0.16.
After knock-down of ISCU the results were TNF reporter robust z-score 0.56.
Depletion of ISCU gave: TNF reporter robust z-score -0.82.
For ISCU the deposit lists TNF reporter robust z-score -0.42.
After knock-down of SIN3A, the screen gave TNF reporter robust z-score -0.86.
For SIN3A, the entry reads TNF reporter robust z-score -1.03.
SIN3A gave TNF reporter robust z-score -1.24.
For SIN3A, the entry reads TNF reporter robust z-score -1.2.
For U2AF2 the deposit lists TNF reporter robust z-score 0.12.
U2AF2 showed TNF reporter robust z-score -0.34.
After knock-down of U2AF2 the results were TNF reporter robust z-score -0.07.
U2AF2 scored TNF reporter robust z-score -0.33.
For VPS41, the entry reads TNF reporter robust z-score -0.52.
With knock-down of VPS41, the screen gave TNF reporter robust z-score -0.24.
Knock-down of VPS41 came out at: TNF reporter robust z-score -0.63.
Knock-down of VPS41 came out at: TNF reporter robust z-score 0.58.
For SAGE1, the entry reads TNF reporter robust z-score 2.93 (active).
After knock-down of SAGE1, the screen gave TNF reporter robust z-score 1.43.
Knock-down of SAGE1 gave: TNF reporter robust z-score 0.78.
Depletion of SAGE1 gave: TNF reporter robust z-score 2.41.
For CABP2, the entry reads TNF reporter robust z-score 0.62.
For CABP2 the deposit lists TNF reporter robust z-score 0.41.
After knock-down of CABP2, the screen gave TNF reporter robust z-score 0.86.
Against CABP2, the entry reads TNF reporter robust z-score 1.
For MEIS3 the deposit lists TNF reporter robust z-score 1.57.
For MEIS3, the entry reads TNF reporter robust z-score 1.62.
After knock-down of MEIS3, the screen gave TNF reporter robust z-score -1.29.
Knock-down of MEIS3 gave: TNF reporter robust z-score -0.31.
SLC46A2 showed TNF reporter robust z-score -0.57.
For SLC46A2, the entry reads TNF reporter robust z-score 0.18.
Knock-down of SLC46A2 resulted in: TNF reporter robust z-score -0.46.
After knock-down of SLC46A2, the screen gave TNF reporter robust z-score 0.82.
JAML gave TNF reporter robust z-score -1.06.
With knock-down of JAML, the record shows TNF reporter robust z-score -0.56.
For JAML, the values are TNF reporter robust z-score -0.2.
Silencing of JAML gave: TNF reporter robust z-score 0.41.
RNF152 scored TNF reporter robust z-score -2.33 (active).
Knock-down of RNF152 came out at: TNF reporter robust z-score -2.19 (active).
Knock-down of RNF152 resulted in: TNF reporter robust z-score -0.15.
Silencing of RNF152 resulted in: TNF reporter robust z-score -1.7 (active).
